Assay results reported in patent US7615542B2, “Dioxolane thymine and combinations for use against 3TC/AZT resistant strains of HIV” (priority 2002, dated 2009).
For at least one compound, name, drawing or mass did not settle the structure.

Tests used:
Type in all cases: cell-based
HIV-1 isolate LAI = experiment: Anti-HIV efficacy in PBMC, isolate LAI; settings: Table 3
Method: (§1) The following Tables 2 and 3, set forth below, describe the HIV resistant strains genotypically (Table 2) and phenotypically (Table 3) which were used in the experiments to test activity.
(§2) Each of the three test compounds were tested for efficacy against the various strains of HIV-1. Anti-HIV efficacy was evaluated in PBMC, reverse transcriptase activity was tested in a microtiter plate-based reverse transciptase assay (Buckeit, et al., AIDS Research and Human Retroviruses, 7:295-302, 1991), MTS staining was used for determining cell viability. […] Table 5 presents a resistance phenotype comparison for compounds of the present invention versus the compounds 3TC and AZT.
(§3) The compounds were also evaluated in a parallel assay for cytotoxicity in uninfected PBM cells.

HIV-1 isolate 488-0 = experiment: Anti-HIV efficacy in PBMC, isolate 488-0; settings: isolate 488-0, Table 3
Method: as §1, §2, §3

HIV-1 isolate G910-6 = experiment: Anti-HIV efficacy in PBMC, isolate G910-6; settings: isolate G910-6, Table 3
Method: as §1
Each of the three test compounds were tested for efficacy against the various strains of HIV-1. Anti-HIV efficacy was evaluated in PBMC, reverse transcriptase activity was tested in a microtiter plate-based reverse transciptase assay (Buckeit, et al., AIDS Research and Human Retroviruses, 7:295-302, 1991), MTS staining was used for determining cell viability.
as §3

HIV-1 isolate H112-2 = experiment: Anti-HIV efficacy in PBMC, isolate H112-2; settings: isolate H112-2, Table 3
Method: as §1, §2, §3

HIV-1 isolate 5705-0 = experiment: Anti-HIV efficacy in PBMC, isolate 5705-0; settings: isolate 5705-0, Table 3
Method: as §1, §2, §3

Measured: Phenotype

Nc1ccn([C@@H]2CS[C@H](CO)O2)c(=O)n1 [3TC, Lamivudine]
Sensitive: all assays above
